Experimental findings from patent EP3173421A1 (Universitat de Barcelona, priority 2015, dated 2017) are described below.

For some assays here: One purity is given for all peptides; the source may state it once.

Data set [1] in a line: general procedure: Fmoc solid-phase peptide synthesis; BHA resin with Fmoc-Rink linker; DIPCDI/HOBt. As to conditions: whole synthesis.
Data set [2] can be described thus: general procedure: Fmoc solid-phase peptide synthesis; Fmoc-Rink Amide MBHA or BHA resins; DIPCDI/HOBt. As to conditions: for oxidative folding yield: oxidative folding step; for step yield: purification step; for final HPLC purity: area integration of HPLC trace.
Data set [3] is described as follows: general procedure: Fmoc solid-phase peptide synthesis; Fmoc-Rink Amide MBHA; DIPCDI/HOBt. Particulars: whole synthesis.

The substance “DAoc-Thr-Dab-cyclo(S-S)[Cys-Dab-DAoc-OLe-Dab-Dab-DCys]” came in with a crude mass in data set [1] (scale 0.039 mmole) of 18.5 mg. Also, in data set [2], the oxidative folding yield was determined as 95% and the step yield is reported as 19%. In addition, in data set [2] (whole synthesis), the crude yield turned out to be 43% and the “final HPLC purity” value is reported as greater than 99%.
“heptanoyl-Dab-Thr-Dab-cyclo(S-S)[Cys-Dab-DAoc-Nle-Dab-Dab-DCys]”: the step yield in data set [2] is recorded as 61%. In data set [2] (whole synthesis), the “final HPLC purity” value is greater than 99%. The substance further displayed an isolated mass in data set [2] (whole synthesis, scale 1.04 mmole) of 0.878 g. For the same substance, in data set [3] (scale 1.04 mmole), the crude mass worked out at 1.429 g and the crude yield worked out at 89%.
The substance “heptanoyl-Dab-Thr-Dab-cyclo(S-S)[Cys-Dab-DAoc-OLe-Dab-Dab-DCyc]” gave a crude mass in data set [1] (scale 0.0345 mmole) of 10 mg. In data set [2], the oxidative folding yield came to 97% and the step yield is 31%. In data set [2] (whole synthesis), the crude yield came to 24% and the “final HPLC purity” value was greater than 99%.
In data set [2], “hexanoyl-Dab-Thr-Dab-cyclo(S-S)[Cys-Dab-DAoc-Nle-Dab-Dab-DCys]” registered a step yield of 20%. In data set [2] (whole synthesis), the crude yield is recorded as 100% and the “final HPLC purity” value was greater than 99%. Also, in data set [3] (scale 0.46 mmole), the crude mass was found to be 0.0575 g.
“hexanoyl-Dab-Thr-Dab-cyclo(S-S)[Cys-Dab-DAoc-OLe-Dab-Dab-DCys]” showed a crude mass in data set [1] (scale 0.032 mmole) of 18.1 mg. Further, in data set [2], the oxidative folding yield is listed as 94% and the step yield is 38%. In data set [2] (whole synthesis), the crude yield is 49% and the “final HPLC purity” value was greater than 99%.
In data set [1] (scale 0.0366 mmole), “octanoyl-Dab-Thr-Dab-cyclo(S-S)[Cys-Dab-DAoc-OLe-Dab-Dab-DCys]” gave a crude mass of 27.3 mg. Further, in data set [2], the oxidative folding yield was determined as 100% and the step yield was 25%. Moreover, in data set [2] (whole synthesis), the crude yield amounted to 62% and the “final HPLC purity” value is greater than 99%.
